# Measurements reported in the supplement of paper PMC8728848.
# This is one part of the list.
# How the values were obtained:
# Experiment in all cases: glycan array binding signal (z-score within array); higher = stronger binding
# Details in all cases: glycan notation: IUPAC condensed, linker removed
# Fuc(a1-3)GlcNAc = target: Fuc(a1-3)GlcNAc
# Method in brief: (§1)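 The binding signal is a Z-score computed within each array and averaged over linkers. Arrays of the same protein sequence at different concentrations or buffers were also averaged together. Data originate from 3228 arrays in the Consortium for Functional Glycomics database, kept only where the protein sequence was available.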
# [1] = target: Fuc(a1-3)[Gal(b1-4)]Glc6S
# Method in brief: as §1
# [2] = target: Fuc(a1-3)[Gal(b1-4)]GlcNAc
# Method in brief: as §1
# [3] = target: Fuc(a1-3)[Gal(b1-4)]GlcNAc(b1-2)Man
# Method in brief: as §1
# [4] = target: Fuc(a1-3)[Gal(b1-4)]GlcNAc(b1-2)Man(a1-3)[Fuc(a1-3)[Gal(b1-4)]GlcNAc(b1-2)Man(a1-6)]Man(b1-4)GlcNAc(b1-4)GlcNAc
# Method in brief: as §1
# [5] = target: Fuc(a1-3)[Gal(b1-4)]GlcNAc(b1-2)Man(a1-3)[Fuc(a1-3)[Gal(b1-4)]GlcNAc(b1-2)Man(a1-6)]Man(b1-4)GlcNAc(b1-4)[Fuc(a1-6)]GlcNAc
# Method in brief: as §1
# [6] = target: Fuc(a1-3)[Gal(b1-4)]GlcNAc(b1-3)Gal(b1-3)[Fuc(a1-4)]GlcNAc
# Method in brief: as §1
# [7] = target: Fuc(a1-3)[Gal(b1-4)]GlcNAc(b1-3)Gal(b1-4)[Fuc(a1-3)]GlcNAc
# Method in brief: as §1
# [8] = target: Fuc(a1-3)[Gal(b1-4)]GlcNAc(b1-3)Gal(b1-4)[Fuc(a1-3)]GlcNAc(b1-3)Gal(b1-4)[Fuc(a1-3)]GlcNAc
# Method in brief: as §1
# [9] = target: Fuc(a1-3)[Gal(b1-4)]GlcNAc(b1-3)GalNAc
# Method in brief: as §1
# [10] = target: Fuc(a1-3)[Gal(b1-4)]GlcNAc(b1-6)GalNAc
# Method in brief: as §1
# [11] = target: Fuc(a1-3)[Gal(b1-4)]GlcNAc(b1-6)[Gal(b1-3)GlcNAc(b1-3)]Gal(b1-4)Glc
# Method in brief: as §1
# [12] = target: Fuc(a1-3)[Gal(b1-4)]GlcNAc6S
# Method in brief: as §1
# [13] = target: Fuc(a1-3)[Gal3S(b1-4)]Glc
# Method in brief: as §1
# [14] = target: Fuc(a1-3)[Gal3S(b1-4)]GlcNAc
# Method in brief: as §1
# [15] = target: Fuc(a1-3)[Gal3S(b1-4)]GlcNAc6S
# Method in brief: as §1
# [16] = target: Fuc(a1-3)[GalNAc(b1-4)]GlcNAc
# Method in brief: as §1
# [17] = target: Fuc(a1-3)[GalNAc(b1-4)]GlcNAc6S
# Method in brief: as §1
# Fuc(a1-4)GlcNAc = target: Fuc(a1-4)GlcNAc
# Method in brief: as §1
# Fuc(b1-3)GlcNAc = target: Fuc(b1-3)GlcNAc
# Method in brief: as §1
# Gal(a1-2)Gal = target: Gal(a1-2)Gal
# Method in brief: as §1
# Gal(a1-3)Gal = target: Gal(a1-3)Gal
# Method in brief: as §1
# Gal(a1-3)Gal(b1-3)GlcNAc = target: Gal(a1-3)Gal(b1-3)GlcNAc
# Method in brief: as §1
# [18] = target: Gal(a1-3)Gal(b1-3)GlcNAc(b1-2)Man
# Method in brief: as §1
# [19] = target: Gal(a1-3)Gal(b1-3)GlcNAc(b1-2)Man(a1-3)[Gal(a1-3)Gal(b1-3)GlcNAc(b1-2)Man(a1-6)]Man(b1-4)GlcNAc(b1-4)GlcNAc
# Method in brief: as §1
# [20] = target: Gal(a1-3)Gal(b1-3)GlcNAc(b1-3)GalNAc
# Method in brief: as §1
# [21] = target: Gal(a1-3)Gal(b1-3)GlcNAc(b1-6)GalNAc
# Method in brief: as §1
# [22] = target: Gal(a1-3)Gal(b1-3)[Fuc(a1-4)]GlcNAc(b1-2)Man(a1-3)[Gal(a1-3)Gal(b1-3)[Fuc(a1-4)]GlcNAc(b1-2)Man(a1-6)]Man(b1-4)GlcNAc(b1-4)GlcNAc
# Method in brief: as §1
# Gal(a1-3)Gal(b1-4)Glc = target: Gal(a1-3)Gal(b1-4)Glc
# Method in brief: as §1
# Gal(a1-3)Gal(b1-4)GlcNAc = target: Gal(a1-3)Gal(b1-4)GlcNAc
# Method in brief: as §1
binder,measurement,setting,value
TAL6-6LysM (Trichoderma atroviride) (protein) AASKLGVPQPAQRDQVNCQLYAVQPNDNCIDISSKNNITYAQLLSWNPSLSSTCSNLASLNSSSICVSNPKGTFSISSNTVGATDIATTTAPVPSPTLDQTTSRCAKYYQVSDGDDCSHLTAQFAITLKDFIFLNSEVWQNCTNLELGYYYCVEPVGYISTYPGYLPTATTKPFNQTSATSLPYDGDPWARFSSNSSVIPIANGTRVDCYSYVYVKNLTENLFADCWNMASMYEITREELVLWNPSLGNDGSSGSNLSGAEASQVASSIAIPTTAPSSITTNLYTYPCTVAANISYCVALVSSTGALPTNTAPPGPHASGEISNCTAWFAPEAYDTCKSILDIFEMSFANFYKMNPSVGPDCSGLAVGTNYCVSTYPNGEDPNDDWDGDDSIPSISPTGIITPTPTQSGMVSNCNKFYDVHSNDGCSAIASSQHVDLSSLYKWNPAIKTDCSGLQASVYVCIGILTTSMSTTSKLPTTTSKPSTTSKPPTGITTPTPTQSGMVKNCNKFYDVHSGDGCSAIASSQKVNLSSFYLWNPAVKTDCSGLQASVFVCIGTLTTSMSTTTSKLPTTTSKPSTTSKPPTGIITPTPTQNGMVKNCNKFYDVHSGDGCSAIASSQKVNLSSFYLWNPAVKTDCSGLQASVFVCVGTATTTTAAGITTPTPTQSGMVSGCNKFYDVHAGDGCSAIASSQKIALSSLYKWNPAVKTDCSGLQASVYICIGVGNAAAARVTGAAASFLEQKLISEEDLNSAVDHHHHHH,glycan array binding signal (z-score),Fuc(a1-3)GlcNAc,0.349
same,glycan array binding signal (z-score),[1],0.626
same,glycan array binding signal (z-score),[2],-0.409
same,glycan array binding signal (z-score),[3],0.367
same,glycan array binding signal (z-score),[4],-0.826
same,glycan array binding signal (z-score),[5],0.673
same,glycan array binding signal (z-score),[6],0.407
same,glycan array binding signal (z-score),[7],-0.013
same,glycan array binding signal (z-score),[8],-0.383
same,glycan array binding signal (z-score),[9],0.693
same,glycan array binding signal (z-score),[10],-0.638
same,glycan array binding signal (z-score),[11],0.048
same,glycan array binding signal (z-score),[12],0.507
same,glycan array binding signal (z-score),[13],-0.761
same,glycan array binding signal (z-score),[14],0.226
same,glycan array binding signal (z-score),[15],-0.382
same,glycan array binding signal (z-score),[16],2.99
same,glycan array binding signal (z-score),[17],0.001
same,glycan array binding signal (z-score),Fuc(a1-4)GlcNAc,-0.874
same,glycan array binding signal (z-score),Fuc(b1-3)GlcNAc,-0.453
same,glycan array binding signal (z-score),Gal(a1-2)Gal,-0.944
same,glycan array binding signal (z-score),Gal(a1-3)Gal,-0.44
same,glycan array binding signal (z-score),Gal(a1-3)Gal(b1-3)GlcNAc,-0.376
same,glycan array binding signal (z-score),[18],0.127
same,glycan array binding signal (z-score),[19],-0.832
same,glycan array binding signal (z-score),[20],0.586
same,glycan array binding signal (z-score),[21],-1.26
same,glycan array binding signal (z-score),[22],1.5
same,glycan array binding signal (z-score),Gal(a1-3)Gal(b1-4)Glc,-0.26
same,glycan array binding signal (z-score),Gal(a1-3)Gal(b1-4)GlcNAc,2.22

# Two entries picked at random from the list so far:
binder,measurement,setting,value
TAL6-6LysM (Trichoderma atroviride) (protein) AASKLGVPQPAQRDQVNCQLYAVQPNDNCIDISSKNNITYAQLLSWNPSLSSTCSNLASLNSSSICVSNPKGTFSISSNTVGATDIATTTAPVPSPTLDQTTSRCAKYYQVSDGDDCSHLTAQFAITLKDFIFLNSEVWQNCTNLELGYYYCVEPVGYISTYPGYLPTATTKPFNQTSATSLPYDGDPWARFSSNSSVIPIANGTRVDCYSYVYVKNLTENLFADCWNMASMYEITREELVLWNPSLGNDGSSGSNLSGAEASQVASSIAIPTTAPSSITTNLYTYPCTVAANISYCVALVSSTGALPTNTAPPGPHASGEISNCTAWFAPEAYDTCKSILDIFEMSFANFYKMNPSVGPDCSGLAVGTNYCVSTYPNGEDPNDDWDGDDSIPSISPTGIITPTPTQSGMVSNCNKFYDVHSNDGCSAIASSQHVDLSSLYKWNPAIKTDCSGLQASVYVCIGILTTSMSTTSKLPTTTSKPSTTSKPPTGITTPTPTQSGMVKNCNKFYDVHSGDGCSAIASSQKVNLSSFYLWNPAVKTDCSGLQASVFVCIGTLTTSMSTTTSKLPTTTSKPSTTSKPPTGIITPTPTQNGMVKNCNKFYDVHSGDGCSAIASSQKVNLSSFYLWNPAVKTDCSGLQASVFVCVGTATTTTAAGITTPTPTQSGMVSGCNKFYDVHAGDGCSAIASSQKIALSSLYKWNPAVKTDCSGLQASVYICIGVGNAAAARVTGAAASFLEQKLISEEDLNSAVDHHHHHH,glycan array binding signal (z-score),[8],-0.383
same,glycan array binding signal (z-score),[14],0.226
